Data from article PMC13455383.
These are yes or no findings as the source states them, for the method shown. Binding seen in cells or lysates may run through a third protein. Some entries that bind do so weakly or less than the wild type.

Protein sequences, listed by entry. Tags and fused reporters are not part of them.
UniProt P11166: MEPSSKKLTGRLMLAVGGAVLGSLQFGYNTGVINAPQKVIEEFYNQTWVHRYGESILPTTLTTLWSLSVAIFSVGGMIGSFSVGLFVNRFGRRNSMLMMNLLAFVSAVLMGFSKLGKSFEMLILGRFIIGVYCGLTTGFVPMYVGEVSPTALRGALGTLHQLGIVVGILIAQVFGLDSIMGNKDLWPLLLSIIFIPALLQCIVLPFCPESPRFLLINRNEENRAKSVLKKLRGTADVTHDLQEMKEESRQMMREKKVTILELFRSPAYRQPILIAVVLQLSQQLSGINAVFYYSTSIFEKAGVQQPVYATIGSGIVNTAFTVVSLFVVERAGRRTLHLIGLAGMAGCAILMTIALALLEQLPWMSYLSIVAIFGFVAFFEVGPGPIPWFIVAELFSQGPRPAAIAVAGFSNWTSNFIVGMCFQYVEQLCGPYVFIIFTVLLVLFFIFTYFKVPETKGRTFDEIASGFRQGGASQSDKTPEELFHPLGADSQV
UniProt P62820: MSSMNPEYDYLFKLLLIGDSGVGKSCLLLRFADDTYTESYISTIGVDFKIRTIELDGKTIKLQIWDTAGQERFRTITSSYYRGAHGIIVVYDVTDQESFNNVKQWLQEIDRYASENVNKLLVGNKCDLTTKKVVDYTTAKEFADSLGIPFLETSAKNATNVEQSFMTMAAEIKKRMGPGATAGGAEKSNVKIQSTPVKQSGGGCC
UniProt P20339: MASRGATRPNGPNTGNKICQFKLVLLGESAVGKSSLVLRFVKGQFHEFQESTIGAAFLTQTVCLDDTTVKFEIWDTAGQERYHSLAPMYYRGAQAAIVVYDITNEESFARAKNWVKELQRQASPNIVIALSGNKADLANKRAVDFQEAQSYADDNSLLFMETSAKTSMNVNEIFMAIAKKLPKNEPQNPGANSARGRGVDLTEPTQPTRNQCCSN

Target: Flag-tagged GLUT1 (glucose transporter 1) (human) (UniProt P11166)
Assay: co-IP; Flag-GLUT1-expressing 293T cells infected with S. Typhimurium (SCVs enriched with magnetic nanoparticles) or left uninfected; anti-Flag immunoprecipitation; immunoblotting for Rab1 and Rab5

Substance	binding
Rab1A (from UniProt P62820 1-205)	binds
Rab5A (from UniProt P20339 1-215)	binds
